Binding data for 2 molecules are collected here from patent US20160039903A1 (Stanford University, published 2016).

Chains of the proteins cited; added tags and fusions are not shown. Lines headed by an entry give the natural chain unless they say otherwise; changes in a name come on top.
UniProt Q9NZQ7: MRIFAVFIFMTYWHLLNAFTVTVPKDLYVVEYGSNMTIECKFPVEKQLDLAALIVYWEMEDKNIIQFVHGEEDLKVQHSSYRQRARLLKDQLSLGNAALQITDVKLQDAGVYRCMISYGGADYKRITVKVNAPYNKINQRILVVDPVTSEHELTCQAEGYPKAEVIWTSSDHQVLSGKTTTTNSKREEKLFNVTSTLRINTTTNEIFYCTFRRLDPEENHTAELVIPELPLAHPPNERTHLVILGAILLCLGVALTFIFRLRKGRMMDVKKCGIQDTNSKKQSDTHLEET

The target in the test is human PD-L1 displayed on yeast (residues 19-132) (human; S. cerevisiae) (UniProt Q9NZQ7). The test is described as follows: competition flow cytometry on yeast displaying human PD-L1; competitor probe: labeled native PD-1 streptavidin tetramer. Background: Flow cytometry measures light scatter and fluorescence of single cells or particles in a stream.

These are yes or no findings as the source states them, for the method shown. Some entries that bind do so weakly or less than the wild type.

B1: G1 4-1 (designed binder)
PD-1 variant IgV domain: DSPDRPWNPPTFSPALLVVTEGDNATFTCSFSNTSESFRLVWHRESPGYETDTLASFPEDRSTPLPDCRFRVTQLPNGRDFHMSVVRARRNDSGTYVCGAIAFHPVIQIKESLRAELRVTER
notes: also called Generation 1, clone 4-1
Regarding B1, the binding entry is recorded as “binds”.

B2: G1 4-4 (designed binder)
PD-1 variant IgV domain: DSPDRPWNPPTFSPALLVVTEGDNATFTCSFSNTSESFRLVWHRESPNNHAYTLALFPEDRSLPFPDCRFRVTQLPNGRDFHMSVVRARRNDSGTYICGAITFDPRIQIKESLRAELRVTER
notes: also called Generation 1, clone 4-4
As to B2, the binding result was “binds”.
